Results deposited as PubChem BioAssay AID743121 (NCATS, 2013).
This is a random part of about 26,000 reagents tested. In the full data, 167 (0.63%) were called active. 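Calls are per gene from RSA p-values that are not deposited; an individual active-marked siRNA can sensitise only weakly.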 Unmarked entries are inactive. Not all columns of the deposit are shown.

Assay: 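Genes whose silencing strengthens cell killing by camptothecin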 (primary screen)
Cells: MDA-MB-231 cells, a human breast cancer line
Reagents: single siRNA against human genes, 20 nM siRNA (0.8 pmol per well)
Duration: 120 h (drug added 48 h after transfection, read 72 h later)
Treatment: camptothecin 20 nM (about EC30) for 72 h; vehicle 0.1% DMSO in parallel plates
Measurement: 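CellTiter-Glo ATP signal, scaled to control siRNA as percent viability; sensitisation given as log2 of untreated divided by camptothecin-treated viability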
Direction: log2 vehicle/camptothecin viability: higher = stronger sensitisation to camptothecin; viability with camptothecin: higher = more viable cells
Rule for the call: 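Active genes have an RSA gene-level p-value below 0.001, computed from the ratios of their separate siRNAs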

After knock-down of TXNDC11 [SID164471556], the record shows log2 vehicle/camptothecin viability -0.154; viability with camptothecin (% of control) = 68.8.
With knock-down of TXNDC11 [SID164471560] the results were log2 vehicle/camptothecin viability -0.681; viability with camptothecin (% of control) = 30.1.
Depletion of TXNDC11 [SID164471561] gave: log2 vehicle/camptothecin viability -0.122; viability with camptothecin (% of control) = 78.1.
With knock-down of AKAP14 [SID164578382] the results were log2 vehicle/camptothecin viability -0.217; viability with camptothecin (% of control) = 104.
Against AKAP14 [SID164578386], the values are log2 vehicle/camptothecin viability -0.113; viability with camptothecin (% of control) = 95.7.
Against AKAP14 [SID164578387] the deposit lists log2 vehicle/camptothecin viability 1.13; viability with camptothecin (% of control) = 43.1.
AKAP14 [SID164578389] scored log2 vehicle/camptothecin viability -0.538; viability with camptothecin (% of control) = 79.6.
After knock-down of GPRC5C [SID164487475] the results were log2 vehicle/camptothecin viability -0.354; viability with camptothecin (% of control) = 84.4.
Depletion of GPRC5C [SID164487480] came out at: log2 vehicle/camptothecin viability -0.212; viability with camptothecin (% of control) = 110.
Silencing of GPRC5C [SID164487481] gave: log2 vehicle/camptothecin viability -0.249; viability with camptothecin (% of control) = 105.
Depletion of GPRC5C [SID164487482] came out at: log2 vehicle/camptothecin viability 0.22; viability with camptothecin (% of control) = 79.6.

Part of the list above, reformatted:
{"Target gene": "TXNDC11", "PubChem SID": "SID164471556", "log2 vehicle/camptothecin viability": -0.154, "viability with camptothecin (% of control)": 68.8}
{"Target gene": "TXNDC11", "PubChem SID": "SID164471560", "log2 vehicle/camptothecin viability": -0.681, "viability with camptothecin (% of control)": 30.1}
{"Target gene": "TXNDC11", "PubChem SID": "SID164471561", "log2 vehicle/camptothecin viability": -0.122, "viability with camptothecin (% of control)": 78.1}

Additional records:
PTPRG [SID164383987] scored log2 vehicle/camptothecin viability -0.18; viability with camptothecin (% of control) = 117.
PTPRG [SID164383988] gave log2 vehicle/camptothecin viability -0.0139; viability with camptothecin (% of control) = 105.
With knock-down of PTPRG [SID164383990], the record shows log2 vehicle/camptothecin viability -0.275; viability with camptothecin (% of control) = 109.
Silencing of PTPRG [SID164383994] resulted in: log2 vehicle/camptothecin viability -0.325; viability with camptothecin (% of control) = 84.9.
Knock-down of GPX3 [SID164367542] resulted in: log2 vehicle/camptothecin viability -0.249; viability with camptothecin (% of control) = 75.2.
Against GPX3 [SID164367543] the deposit lists log2 vehicle/camptothecin viability -0.0925; viability with camptothecin (% of control) = 33.5.
For GPX3 [SID164367544], the values are log2 vehicle/camptothecin viability 0.557; viability with camptothecin (% of control) = 60.4.
Depletion of GPX3 [SID164367546] resulted in: log2 vehicle/camptothecin viability -0.423; viability with camptothecin (% of control) = 83.8.
For OR1D2 [SID164378961], the entry reads log2 vehicle/camptothecin viability 0.987; viability with camptothecin (% of control) = 39.2.
Knock-down of OR1D2 [SID164378962] resulted in: log2 vehicle/camptothecin viability -0.0456; viability with camptothecin (% of control) = 106.
After knock-down of OR1D2 [SID164378963], the record shows log2 vehicle/camptothecin viability -0.413; viability with camptothecin (% of control) = 65.
Against OR1D2 [SID164378968], the values are log2 vehicle/camptothecin viability -0.15; viability with camptothecin (% of control) = 58.1.
Knock-down of OR1D2 [SID164397302] gave: log2 vehicle/camptothecin viability -0.174; viability with camptothecin (% of control) = 51.3.
Depletion of OR1D2 [SID164397307] gave: log2 vehicle/camptothecin viability -0.633; viability with camptothecin (% of control) = 87.6.
